Test results reported in publication PMC10470606.
No constants are given. Whether binding was seen depends on the method and setting. For some assays here: In cells and extracts the contact can be indirect. Some entries that bind do so weakly or less than the wild type.

The chains behind the UniProt entries cited, without tags or fusion partners.
UniProt P21926: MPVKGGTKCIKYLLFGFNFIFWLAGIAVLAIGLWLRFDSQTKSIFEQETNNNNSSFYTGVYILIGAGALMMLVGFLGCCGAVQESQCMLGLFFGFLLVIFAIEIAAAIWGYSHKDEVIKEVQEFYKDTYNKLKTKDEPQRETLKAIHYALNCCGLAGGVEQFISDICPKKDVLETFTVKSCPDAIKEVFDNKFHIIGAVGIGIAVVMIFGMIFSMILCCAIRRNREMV

Experiments:
[1] = target: tetraspanin CD9 (human (endogenous in A549; the cells lysed for the co-IP are not named)) (UniProt P21926); assay: co-IP; anti-CD9 antibody (MM2/57, 4 µg) on Protein-G magnetic beads; whole cell lysates in RIPA buffer, 60 min at 4°C; washed in PBS-Triton X-100 (0.2%); blots probed with anti-CD9 or anti-SDC-1; anti-FLAG immunoprecipitation as control
[2] = target: tetraspanin CD9 (human (endogenous in A549; the cells lysed for the co-IP are not named)) (UniProt P21926); assay: fluorescence microscopy of labelled peptide on cells; 200 nM 6-carboxyfluorescein (FAM) tagged peptide on WT or CD9-/- A549 cells on coverslips, 30 min at 37°C, fixed with 2% PFA; corrected total cell fluorescence; scrambled peptide as control; only the binder purified

Binder	binding [1]	binding [2]
syndecan-1 (protein, UniProt P18827 23-310) QIVATNLPPEDQDGSGDDSDNFSGSGAGALQDITLSQQTPSTWKDTQLLTAIPTSPEPTGLEATAASTSTLPAGEGPKEGEAVVLPEVEPGLTAREQEATPRPRETTQLPTTHLASTTTATTAQEPATSHPHRDMQPGHHETSTPAGPSQADLHTPHTEDGGPSATERAAEDGASSQLPAAEGSGEQDFTFETSGENTAVVAVEPDRRNQSPVDQGATGASQGLLDRKEVLGGVIAGGLVGLIFAVCLVGFMLYRMKKKDEGSYSLEEPKQANGGAYQKPTKQEEFYA	binds	–
DEPQRETLKAIHYALN (6-carboxyfluorescein moiety at the N-terminus) [CD9 EC2-derived peptide 800C, fluorescently labeled]	–	binds
